Primary screen of a compound library

Sequences of proteins named here, by UniProt entry; tags and fusion partners are left off.
UniProt E9BF75, entry or part of it: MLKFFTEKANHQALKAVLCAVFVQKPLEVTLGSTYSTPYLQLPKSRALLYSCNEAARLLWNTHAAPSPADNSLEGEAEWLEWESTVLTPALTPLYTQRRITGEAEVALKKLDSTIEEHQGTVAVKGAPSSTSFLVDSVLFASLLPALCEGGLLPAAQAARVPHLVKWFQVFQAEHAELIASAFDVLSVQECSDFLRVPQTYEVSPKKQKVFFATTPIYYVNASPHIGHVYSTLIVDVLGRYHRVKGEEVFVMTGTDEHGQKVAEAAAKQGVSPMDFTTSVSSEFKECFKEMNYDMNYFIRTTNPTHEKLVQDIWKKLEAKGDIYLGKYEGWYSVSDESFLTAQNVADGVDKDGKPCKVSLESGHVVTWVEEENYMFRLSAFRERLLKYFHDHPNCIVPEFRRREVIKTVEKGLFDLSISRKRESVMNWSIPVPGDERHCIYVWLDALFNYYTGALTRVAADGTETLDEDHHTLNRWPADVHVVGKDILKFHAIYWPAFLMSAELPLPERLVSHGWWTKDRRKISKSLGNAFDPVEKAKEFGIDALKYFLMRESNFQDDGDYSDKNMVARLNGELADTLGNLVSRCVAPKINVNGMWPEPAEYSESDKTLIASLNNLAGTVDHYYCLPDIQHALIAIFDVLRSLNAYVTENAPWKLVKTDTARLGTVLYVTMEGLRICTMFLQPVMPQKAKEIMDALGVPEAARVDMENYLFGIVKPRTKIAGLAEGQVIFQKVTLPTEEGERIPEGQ

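Primary screen of methionyl-tRNA synthetase; the read-out is not stated. Target: Methionyl-tRNA synthetase (putative), Leishmania donovani (UniProt E9BF75). The test concentration is not given. Values are per cent inhibition. About 68,000 compounds were tested under these conditions; 0.035% (about 24) showed 50% or more at least once.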

Results are percentages, as filed.
The record does not define 0% and 100%; most values in the screen are far below 50% and negative numbers occur (in some assays of this library far below -100).
This is an unselected part of the compounds tested.

- Cc1ncc(C(=O)N2C[C@H](CO)C[C@H](CN3CCOCC3)C2)c(=O)[nH]1 : 3.106%
- O=C(NCC1CCC2(CCNCC2)CO1)c1ccno1 (stereo not drawn) : 11.96%
- CCNC(=O)Cn1ncc(N(C)CCc2ccccc2)cc1=O : 0.5333%
- NC1(c2nc(-c3ccccc3)cc(=O)[nH]2)CCCCC1 : 15.32%
- CCOC(=O)N1CCN(CC(=O)Nc2nnc(CC)s2)CC1 : 8.38%
- Cc1nc(CCC(=O)NCC(N)=O)cc(C2CCNCC2)n1 : 14.12%
- CN(C)C(=O)CN1CCC2(CCN(Cc3nccs3)CC2)C1=O : 2.929%
- CN(Cc1cc(C(C)(C)C)n[nH]1)Cc1c[nH]nc1-c1ccc(F)cc1 : 8.571%
- O=C(CCCc1ccccn1)N1CCC(Nc2cccnn2)CC1 : 4.396%
- NC(=O)N1CCC(NCc2cc(C(F)(F)F)ccc2Cl)CC1 : 12.89%
- O=C(NC1COC2(CCN(Cc3cccs3)CC2)C1)c1ccccn1 (stereo not drawn) : 12.06%
- CCC1CN(C(=O)c2ccccc2N2CCOCC2)CCN1C(C)C (stereo not drawn) : 2.151%
- CC(=O)Nc1ccc(C(=O)Nc2cnc3n2CCCC3)c(C)c1 : 5.914%
- NC(=O)CS(=O)(=O)Cc1csc(-c2ccccc2)n1 : 11.2%
- O=C1CCNc2cc3c(cc2CN1CC1CC1)OCO3 : 4.595%
- COc1ccc(C(=O)N2CCCC(n3cc(C)cn3)C2)c(F)c1 (stereo not drawn) : 17.05%
- Cc1ccc2[nH]c(CO[C@H]3CN(c4ccc(C#N)cn4)C[C@H]3F)nc2c1 : 10.99%
- O=C1COC2(CCN(Cc3ccco3)CC2)CN1 : 2.594%
- O=C(Cn1cc(Cl)cn1)Nc1ccc2c(c1)OCCCO2 : 9.375%
- CN(Cc1csc(-c2cnn(C)c2)n1)CC1CCN(CCO)CC1 : 8.743%
- Cc1nn(C)cc1CN1CCc2nc3sccc3c(=O)n2CC1 : 16.67%
- CC(=O)N1CCC(C(=O)NC2CCc3nccn3C2)CC1 (stereo not drawn) : 10.18%
- COCCO[C@H]1CCN(C(=O)NC2CC2)[C@H]1Cc1cnn(C)c1 : 14.37%
- N#Cc1cccc(C(=O)NS(=O)(=O)c2ccc(C#N)c(Cl)c2)c1 : 5.245%
- COc1c(CNCC(O)c2cccc(F)c2)c(C(C)C)nn1C (stereo not drawn) : 6.25%
- COc1ccc(-c2nnc(SC(C)C(N)=O)[nH]2)c(OC)c1 (stereo not drawn) : 13.79%
- O=C(CCc1ccccc1F)NS(=O)(=O)c1ccc2c(c1)OCCO2 : 8.883%
- COc1ccc(CCNCc2ccco2)cc1OC : 7.843%
- Cc1csc(CN2C[C@@H]3CN(C)CCO[C@@H]3C2)n1 : 12.89%
- Cc1cc(C(=O)NCc2ccc(N3CCCC(C(N)=O)C3)cc2)no1 (stereo not drawn) : 12.59%
- CCOc1ccc(Cl)c(C(=O)NCCC(=O)Nc2ccncc2)n1 : 19.2%
- CC(c1ccccc1)n1c(SCC(=O)O)nnc1-c1ccn[nH]1 (stereo not drawn) : 2.688%
- O=C(C1CCOCC1)N(CCc1ccccc1)C1CCOC1 (stereo not drawn) : 4.712%

The last 4 entries again:

{"structure": "Cc1cc(C(=O)NCc2ccc(N3CCCC(C(N)=O)C3)cc2)no1", "stereo": "stereo not drawn", "inhibition": 12.59}
{"structure": "CCOc1ccc(Cl)c(C(=O)NCCC(=O)Nc2ccncc2)n1", "inhibition": 19.2}
{"structure": "CC(c1ccccc1)n1c(SCC(=O)O)nnc1-c1ccn[nH]1", "stereo": "stereo not drawn", "inhibition": 2.688}
{"structure": "O=C(C1CCOCC1)N(CCc1ccccc1)C1CCOC1", "stereo": "stereo not drawn", "inhibition": 4.712}

The values are deposited in ChEMBL (CHEMBL3988442, “University of Dundee, Small-Polar-MMV Screening Library” (2021)).